# From PubChem BioAssay AID1487 (National Center for Advancing Translational Sciences (NCATS), 2009)
# This is one part of the list. Shown are side measurements of this screen, not its main read-out; they come without a call. The list favours compounds with an active or inconclusive main result. The note in brackets gives the kind of curve behind each potency; many fits are weak.
# Assay: qHTS Assay for Modulators of Lamin A Splicing
# Details: HeLa LMNA splicing GFP/RFP minigene ratio, 48 h
# Outline: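 S3 HeLa cells stably expressing lamin A-EGFP splicing minigene plus DsRed2, 600 cells/well, 48 h compound exposure at 37C. Laser-scanning cytometry; analysed as GFP (500-530 nm)/RFP (575-640 nm) total intensity ratio; 0.5% DMSO vehicle.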
# [1] = measured here: GFP splicing reporter channel
# [2] = measured here: RFP viability control channel
SMILES,AC50 [1],AC50 [2]
CN(CC(=O)NCc1ccc(F)cc1)S(=O)(=O)c1ccc2[nH]c3c(c2c1)CCCC3,"5.01 µM [falling, partial curve, poor fit]",
COc1ccc(-c2ccc(-c3noc(C(C)C)n3)c(OC)n2)cc1,"7.08 µM [rising, partial curve]","17.8 µM [rising, partial curve, poor fit]"
COc1ccc(OC)c(NC(=O)c2[nH]c(C)c(C(C)=O)c2C)c1,,"15.8 µM [rising, partial curve]"
CCN(CC)S(=O)(=O)c1cccc(-c2nnc(SCCCC(=O)c3ccc(F)cc3)o2)c1,,"12.6 µM [rising, partial curve]"
FC(F)(F)COc1nc(OCC(F)(F)F)nc(N2CCN(c3ccccc3)CC2)n1,,"35.5 µM [rising, single point]"
O=C(c1ccc2c(c1)N(Cc1cccc(F)c1)C(=O)c1ccccc1S2)N1CCC2(CC1)OCCO2,"1.78 µM [falling, full curve, poor fit]","5.62 µM [falling, single point]"
Cc1c(Cl)cccc1NC(c1ccc(F)cc1)c1nnc(-c2ccccc2)o1 (configuration not stated),,"0.141 µM [rising, full curve, poor fit]"
Cc1ccc(Cc2cnc(NC(=O)c3ccco3)s2)cc1,,"35.5 µM [rising, single point]"
CCCNC(=O)/C=C/c1ccc(C(C)C)cc1,"0.282 µM [falling, full curve, poor fit]","0.0251 µM [falling, full curve, poor fit]"
CCC1=NN2C(=N)/C(=C\c3cccn3-c3ccc(C)cc3C)C(=O)N=C2S1,"0.708 µM [rising, partial curve, poor fit]",
NC(=O)c1c(C(F)(F)F)cc(-c2ccccc2)nc1NCCO,,"25.1 µM [rising, single point]"
COC(=O)[C@H]1Cc2cnoc2C[C@]1(C)C(=O)O,,"3.98 µM [rising, single point]"
Cc1ccc(-n2ncc(C(=O)NC3CCCCC3)c2C2CCN(C(=O)OC(C)(C)C)CC2)cc1,,"0.1 µM [falling, full curve, poor fit]"
COc1cccc(C2C3=C(CC(C)(C)CC3=O)Nc3n[nH]c(C)c32)c1 (configuration not stated),,"1.58 µM [falling, full curve, poor fit]"
C/C=C(/C)C(=O)OC(C)(C)[C@@H]1Cc2c(ccc3ccc(=O)oc23)O1,,"22.4 µM [rising, single point]"
CCN(c1ccccc1C)S(=O)(=O)c1nnc(NC(=O)c2ccco2)s1,"6.31 µM [rising, partial curve]",
O=C(Cc1ccc(F)cc1)Nc1cccc2cccnc12,"2.51 µM [rising, single point]",
CC(=O)[C@@]1(O)CC[C@H]2[C@@H]3CCC4=CC(=O)CC[C@]4(C)[C@H]3[C@@H](O)C[C@@]21C,"11.2 µM [rising, partial curve, poor fit]","11.2 µM [rising, partial curve, poor fit]"
CC1CCC(C(C)C)C(OC(=O)CSc2n[nH]c(=O)[nH]c2=O)C1 (configuration not stated),"8.91 µM [rising, partial curve]","11.2 µM [rising, partial curve, poor fit]"
C/C(=N/NC(=O)c1cc(C(C)C)[nH]n1)c1cccs1,"5.62 µM [falling, partial curve]","6.31 µM [falling, partial curve, poor fit]"
O=C1CN(C(=O)CSc2nc3ccccc3c(=O)n2Cc2ccc(F)cc2)c2ccccc2N1,,"31.6 µM [rising, single point]"
OC1C=CSc2nc3ccccc3n21 (configuration not stated),"35.5 µM [falling, single point]","35.5 µM [falling, single point]"
Cc1nnc(SCC(=O)Nc2nc(C(C)(C)C)cs2)s1,,"35.5 µM [rising, single point]"
CCOC(=O)N1CCC(N(CCOC)C(=S)Nc2cccc(SC)c2)CC1,"35.5 µM [falling, single point]","35.5 µM [falling, single point]"
O=C(CCCNS(=O)(=O)c1cccs1)N1CCN(c2ccc(F)cc2)CC1,,"11.2 µM [rising, partial curve, poor fit]"
COc1ccc(Oc2coc3cc(OC(=O)N4CCOCC4)ccc3c2=O)cc1,,"28.2 µM [rising, single point]"
COc1ccc(NC(=O)Cn2nc(C(F)(F)F)c3c2CCCC3)cc1OC,"11.2 µM [rising, partial curve, poor fit]","12.6 µM [rising, partial curve]"

# Quoted from the listing.
# Under AC50 [1], `O=C(Cc1ccc(F)cc1)Nc1cccc2cccnc12` shows 2.51 µM [rising, single point]
# Under AC50 [1], `COc1ccc(NC(=O)Cn2nc(C(F)(F)F)c3c2CCCC3)cc1OC` shows 11.2 µM [rising, partial curve, poor fit]
# Under AC50 [1], `CCCNC(=O)/C=C/c1ccc(C(C)C)cc1` shows 0.282 µM [falling, full curve, poor fit]
# Under AC50 [2], `CC(=O)[C@@]1(O)CC[C@H]2[C@@H]3CCC4=CC(=O)CC[C@]4(C)[C@H]3[C@@H](O)C[C@@]21C` shows 11.2 µM [rising, partial curve, poor fit]

# More entries.

SMILES,AC50 [1],AC50 [2]
C/C(=N\Nc1nc2ccccc2s1)c1cccs1,,"14.1 µM [rising, partial curve, poor fit]"
O=C(Nc1ccc(S(=O)(=O)NCc2ccco2)cc1)C1CCCCC1,"0.0891 µM [rising, full curve, poor fit]",
COc1ccc(NS(=O)(=O)c2cc(S(C)(=O)=O)ccc2C)cc1,,"2.82 µM [rising, single point]"
Cc1ccc(CCNC(=O)CCS(=O)(=O)c2cc3c(cc2Cl)NC(=O)CO3)cc1,"25.1 µM [falling, partial curve, poor fit]","35.5 µM [falling, partial curve, poor fit]"
CC(C)NC(=O)CN1C(=O)c2cccnc2Sc2ccccc21,"0.00891 µM [falling, full curve, poor fit]","0.0158 µM [falling, full curve]"
C/C(=N\NS(=O)(=O)c1ccc(C)cc1)c1cc2ccccc2oc1=O,,"5.01 µM [rising, single point]"
COc1ccccc1NC(=O)COc1ccccc1C(=O)c1cnn(-c2ccccc2)c1,,"11.2 µM [rising, partial curve, poor fit]"
COC(=O)c1c(-c2ccc(Cl)cc2)noc1N1CCN(c2ccc(F)cc2)CC1,"3.55 µM [falling, single point]","7.94 µM [falling, partial curve]"
CCOc1ccc(CNC(=O)CCS(=O)(=O)c2ccc3c(c2)oc(=O)n3C)cc1,,"0.316 µM [falling, partial curve, poor fit]"
CC(C)CN(C[C@@H](O)[C@H](Cc1ccccc1)NC(=O)O[C@H]1CCOC1)S(=O)(=O)c1ccc(N)cc1,"0.562 µM [rising, partial curve, poor fit]","0.631 µM [rising, full curve, poor fit]"
C=C1CC2C3C=C(C)C4=CC(=O)CCC4(C)C3CCC2(C)[C@@]1(OC(C)=O)C(C)=O (some centres not stated),,"1.58 µM [rising, partial curve]"
c1ccc2c(c1)[nH]c1c(N3CCN(C4CCCCC4)CC3)ncnc12,,"35.5 µM [rising, single point]"
N#C/C(=C\c1ccccc1)C(=O)NCCN1CCOCC1,,"0.447 µM [falling, full curve, poor fit]"
COc1cc(Cn2c(-c3nonc3N)nc3ccccc32)ccc1C,,"0.01 µM [rising, full curve, poor fit]"
COc1ccc(C(=O)NC(=S)Nc2ccccc2N2CCCCC2)cc1[N+](=O)[O-],,"12.6 µM [rising, partial curve, poor fit]"
C[C@@H]1C[C@@H]2[C@H]3CCC4=CC(=O)C=C[C@]4(C)[C@]3(F)[C@@H](O)C[C@]2(C)[C@@]1(O)C(=O)CO,"14.1 µM [falling, single point]",
Cc1cccnc1NC(=O)C1c2ccccc2Oc2ccccc21,,"0.00708 µM [falling, full curve, poor fit]"
CCOC(=O)c1c(C)n(C)c2ccc(OC(=O)c3ccco3)cc12,"0.1 µM [rising, full curve, poor fit]",
Cc1coc2cc3oc(=O)c(CCC(=O)O)c(C)c3cc12,"0.0398 µM [falling, full curve]","0.0398 µM [falling, full curve, poor fit]"
CC1CCCCN1S(=O)(=O)c1ccc(C(=O)Nc2nnc(-c3ccccc3Cl)o2)cc1 (configuration not stated),,"1.58 µM [rising, full curve]"
Cc1ccc(NC(=O)CS(=O)CC(=O)N(CC(=O)NC2CCCC2)c2ccc3c(c2)OCCO3)cc1 (configuration not stated),,"1.78 µM [falling, single point]"
CN(CCOc1ccccc1)c1ccc(S(=O)(=O)N2CCCCC2)cn1,"31.6 µM [rising, single point]","35.5 µM [rising, single point]"
Cc1cc(C)nc(N/N=C/c2ccc(N3CCOCC3)cc2)n1,"0.00447 µM [falling, full curve, poor fit]","0.00316 µM [falling, full curve, poor fit]"
O=C(O)C1=CCNCC1,"0.00501 µM [falling, full curve, poor fit]","6.31 µM [falling, partial curve, poor fit]"
Cc1ccccc1OCC(=O)Nc1ccc2nc(SCC(N)=O)sc2c1,,"4.47 µM [falling, partial curve, poor fit]"
CCOC(=O)c1ccc(NCc2ccc3c(c2)OCO3)cc1,"25.1 µM [rising, single point]","35.5 µM [rising, single point]"
COc1ccc(C(=O)/C=C/C(=O)N(Cc2ccccc2)C(C(=O)NC2CCCCC2)c2ccncc2)c(O)c1 (configuration not stated),,"10 µM [rising, partial curve, poor fit]"
